Test results: the supplement of paper PMC12819154, “High-throughput peptide-centric local stability assay extends protein–ligand identification to membrane proteins, tissues and bacteria” (Nature Structural & Molecular Biology, 2025)
The list shows a part of the results, in another mix than the full data. Most entries show no effect beyond the scatter of the controls.

Sequences of proteins named here, by UniProt entry; tags and fusion partners are left off. A change or cut given only in a name is not applied to a line headed by its entry.
UniProt P30863: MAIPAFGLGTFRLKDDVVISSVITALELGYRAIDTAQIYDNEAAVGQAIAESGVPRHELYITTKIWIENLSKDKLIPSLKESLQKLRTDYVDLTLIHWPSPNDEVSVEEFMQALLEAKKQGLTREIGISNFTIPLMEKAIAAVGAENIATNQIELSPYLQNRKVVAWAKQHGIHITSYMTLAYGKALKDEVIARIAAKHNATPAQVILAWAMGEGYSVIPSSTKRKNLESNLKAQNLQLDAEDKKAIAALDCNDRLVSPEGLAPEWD
UniProt P24205: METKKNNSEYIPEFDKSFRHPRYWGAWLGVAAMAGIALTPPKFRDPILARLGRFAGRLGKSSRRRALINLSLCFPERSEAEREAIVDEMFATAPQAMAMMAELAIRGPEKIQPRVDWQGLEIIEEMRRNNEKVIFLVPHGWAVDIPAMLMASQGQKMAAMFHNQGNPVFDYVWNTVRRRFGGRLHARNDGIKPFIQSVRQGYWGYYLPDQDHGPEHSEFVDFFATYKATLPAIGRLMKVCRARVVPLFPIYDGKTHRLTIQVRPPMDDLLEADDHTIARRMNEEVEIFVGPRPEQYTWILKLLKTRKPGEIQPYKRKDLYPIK
UniProt P23917: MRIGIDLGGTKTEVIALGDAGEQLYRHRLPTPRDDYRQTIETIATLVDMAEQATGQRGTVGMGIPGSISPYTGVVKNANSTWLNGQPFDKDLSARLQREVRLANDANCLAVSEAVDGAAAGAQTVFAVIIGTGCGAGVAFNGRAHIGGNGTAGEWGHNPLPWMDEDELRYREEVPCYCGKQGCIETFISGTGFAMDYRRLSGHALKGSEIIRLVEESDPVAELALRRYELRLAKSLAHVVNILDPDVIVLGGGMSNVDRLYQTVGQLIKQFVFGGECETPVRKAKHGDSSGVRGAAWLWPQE
UniProt P27303: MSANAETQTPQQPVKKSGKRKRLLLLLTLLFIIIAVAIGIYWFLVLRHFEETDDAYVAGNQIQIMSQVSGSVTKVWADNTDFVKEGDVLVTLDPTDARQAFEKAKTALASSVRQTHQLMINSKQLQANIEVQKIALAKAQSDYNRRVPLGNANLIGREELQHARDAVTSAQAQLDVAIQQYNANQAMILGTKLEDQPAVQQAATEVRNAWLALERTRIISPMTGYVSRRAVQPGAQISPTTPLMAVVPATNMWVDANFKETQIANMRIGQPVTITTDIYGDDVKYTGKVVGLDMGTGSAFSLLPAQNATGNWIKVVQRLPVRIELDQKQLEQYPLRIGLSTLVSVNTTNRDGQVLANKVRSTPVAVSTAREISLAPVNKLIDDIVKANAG
UniProt P30748: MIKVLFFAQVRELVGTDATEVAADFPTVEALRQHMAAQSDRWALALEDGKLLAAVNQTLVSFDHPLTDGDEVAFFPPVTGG
UniProt P28911: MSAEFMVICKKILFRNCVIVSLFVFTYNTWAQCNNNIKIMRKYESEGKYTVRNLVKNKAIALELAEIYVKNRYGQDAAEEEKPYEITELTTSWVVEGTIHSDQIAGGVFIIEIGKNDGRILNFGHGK
UniProt P28722: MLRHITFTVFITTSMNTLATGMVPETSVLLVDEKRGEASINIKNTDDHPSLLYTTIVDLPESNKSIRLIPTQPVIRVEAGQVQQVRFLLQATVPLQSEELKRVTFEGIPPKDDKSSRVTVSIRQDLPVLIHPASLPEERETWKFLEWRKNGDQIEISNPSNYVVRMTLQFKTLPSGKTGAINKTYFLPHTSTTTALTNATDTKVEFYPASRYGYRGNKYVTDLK
UniProt P22186: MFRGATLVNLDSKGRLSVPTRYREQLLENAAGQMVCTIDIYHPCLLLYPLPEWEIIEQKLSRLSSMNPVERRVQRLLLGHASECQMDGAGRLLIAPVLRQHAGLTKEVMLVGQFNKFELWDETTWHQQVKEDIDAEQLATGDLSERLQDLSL
UniProt P23256: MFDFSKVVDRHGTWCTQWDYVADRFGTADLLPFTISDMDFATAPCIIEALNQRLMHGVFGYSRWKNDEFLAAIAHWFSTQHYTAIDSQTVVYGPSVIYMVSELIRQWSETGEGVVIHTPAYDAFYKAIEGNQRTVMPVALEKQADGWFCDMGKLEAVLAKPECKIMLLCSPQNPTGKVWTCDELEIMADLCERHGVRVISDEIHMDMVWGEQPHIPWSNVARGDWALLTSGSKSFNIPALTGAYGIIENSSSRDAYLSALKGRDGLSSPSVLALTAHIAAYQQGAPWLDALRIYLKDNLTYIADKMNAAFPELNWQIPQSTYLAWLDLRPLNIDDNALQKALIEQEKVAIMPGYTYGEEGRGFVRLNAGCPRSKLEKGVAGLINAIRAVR
UniProt P24242: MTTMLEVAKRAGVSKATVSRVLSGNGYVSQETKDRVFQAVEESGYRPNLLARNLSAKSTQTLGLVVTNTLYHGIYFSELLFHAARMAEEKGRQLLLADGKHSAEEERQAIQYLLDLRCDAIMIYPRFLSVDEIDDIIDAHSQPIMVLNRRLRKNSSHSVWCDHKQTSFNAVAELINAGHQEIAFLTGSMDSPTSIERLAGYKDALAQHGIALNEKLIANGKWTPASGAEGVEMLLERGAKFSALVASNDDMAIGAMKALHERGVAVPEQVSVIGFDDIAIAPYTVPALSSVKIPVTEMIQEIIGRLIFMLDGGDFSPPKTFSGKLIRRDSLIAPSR
UniProt P24218: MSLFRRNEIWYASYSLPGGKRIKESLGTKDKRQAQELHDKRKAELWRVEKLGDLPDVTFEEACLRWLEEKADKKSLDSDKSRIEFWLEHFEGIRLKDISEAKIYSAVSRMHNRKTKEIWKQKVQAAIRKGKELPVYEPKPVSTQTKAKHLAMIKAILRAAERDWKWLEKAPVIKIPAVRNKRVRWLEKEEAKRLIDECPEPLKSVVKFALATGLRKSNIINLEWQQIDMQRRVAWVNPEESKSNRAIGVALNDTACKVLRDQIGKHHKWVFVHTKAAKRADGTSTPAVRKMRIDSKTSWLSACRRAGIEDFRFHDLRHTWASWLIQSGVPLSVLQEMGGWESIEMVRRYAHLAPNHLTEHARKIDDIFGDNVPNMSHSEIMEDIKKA
UniProt P21369: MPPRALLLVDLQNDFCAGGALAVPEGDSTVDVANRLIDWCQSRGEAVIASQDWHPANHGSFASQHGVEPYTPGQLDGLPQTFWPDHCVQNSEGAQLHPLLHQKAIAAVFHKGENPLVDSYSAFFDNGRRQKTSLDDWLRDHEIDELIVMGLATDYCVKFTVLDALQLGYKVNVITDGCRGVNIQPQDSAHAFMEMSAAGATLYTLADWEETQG
UniProt P21363: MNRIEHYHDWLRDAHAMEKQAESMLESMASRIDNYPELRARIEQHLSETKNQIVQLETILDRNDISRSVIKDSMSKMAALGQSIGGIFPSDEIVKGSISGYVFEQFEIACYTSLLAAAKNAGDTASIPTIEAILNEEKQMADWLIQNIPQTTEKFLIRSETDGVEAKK
UniProt P25798: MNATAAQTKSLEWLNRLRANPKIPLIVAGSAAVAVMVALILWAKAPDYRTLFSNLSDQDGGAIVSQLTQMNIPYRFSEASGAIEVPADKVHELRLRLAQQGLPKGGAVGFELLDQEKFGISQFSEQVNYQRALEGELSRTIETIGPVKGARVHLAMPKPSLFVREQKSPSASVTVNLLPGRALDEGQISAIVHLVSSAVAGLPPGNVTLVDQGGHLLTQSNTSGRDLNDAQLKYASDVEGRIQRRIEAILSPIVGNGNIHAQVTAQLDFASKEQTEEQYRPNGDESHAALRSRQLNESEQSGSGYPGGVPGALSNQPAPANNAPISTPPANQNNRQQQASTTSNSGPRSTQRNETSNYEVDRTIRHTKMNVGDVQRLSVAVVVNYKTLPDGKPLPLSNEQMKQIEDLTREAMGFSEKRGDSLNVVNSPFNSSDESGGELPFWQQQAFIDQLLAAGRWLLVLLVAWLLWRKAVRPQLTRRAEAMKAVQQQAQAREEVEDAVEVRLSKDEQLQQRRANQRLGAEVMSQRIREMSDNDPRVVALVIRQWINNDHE
UniProt P30843: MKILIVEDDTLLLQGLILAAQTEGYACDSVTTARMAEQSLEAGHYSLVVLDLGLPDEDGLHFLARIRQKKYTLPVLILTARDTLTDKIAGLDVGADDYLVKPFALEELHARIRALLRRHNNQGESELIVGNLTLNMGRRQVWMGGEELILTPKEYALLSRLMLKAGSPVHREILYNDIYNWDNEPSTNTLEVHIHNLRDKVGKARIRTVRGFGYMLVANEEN
UniProt P16703: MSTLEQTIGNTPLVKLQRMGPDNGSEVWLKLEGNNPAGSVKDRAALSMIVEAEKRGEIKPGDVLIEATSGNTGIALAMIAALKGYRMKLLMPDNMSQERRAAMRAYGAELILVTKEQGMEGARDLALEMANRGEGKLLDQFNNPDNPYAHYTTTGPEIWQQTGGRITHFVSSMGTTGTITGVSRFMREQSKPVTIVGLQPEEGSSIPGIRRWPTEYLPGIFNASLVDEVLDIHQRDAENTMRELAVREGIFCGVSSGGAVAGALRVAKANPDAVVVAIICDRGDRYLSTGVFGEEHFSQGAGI
UniProt P25665: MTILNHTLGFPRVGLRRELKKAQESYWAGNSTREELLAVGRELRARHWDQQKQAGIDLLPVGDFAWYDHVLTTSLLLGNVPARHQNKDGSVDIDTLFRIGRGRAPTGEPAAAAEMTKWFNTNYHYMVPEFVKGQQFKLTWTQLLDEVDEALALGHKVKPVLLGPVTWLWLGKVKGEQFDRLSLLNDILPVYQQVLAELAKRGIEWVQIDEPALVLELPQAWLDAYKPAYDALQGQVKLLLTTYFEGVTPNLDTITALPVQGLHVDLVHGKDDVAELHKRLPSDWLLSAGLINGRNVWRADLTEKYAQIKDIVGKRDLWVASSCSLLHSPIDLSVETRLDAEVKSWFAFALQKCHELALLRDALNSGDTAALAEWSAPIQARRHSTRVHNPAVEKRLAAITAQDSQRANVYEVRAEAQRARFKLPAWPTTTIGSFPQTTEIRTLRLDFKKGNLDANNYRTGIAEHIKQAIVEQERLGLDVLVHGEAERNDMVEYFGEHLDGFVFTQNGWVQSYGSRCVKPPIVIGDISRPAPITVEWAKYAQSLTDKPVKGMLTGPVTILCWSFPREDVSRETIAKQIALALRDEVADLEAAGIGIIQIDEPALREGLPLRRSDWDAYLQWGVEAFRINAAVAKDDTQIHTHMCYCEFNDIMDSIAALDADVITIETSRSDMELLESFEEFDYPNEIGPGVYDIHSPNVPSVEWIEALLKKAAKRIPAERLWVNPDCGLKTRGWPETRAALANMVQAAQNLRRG
UniProt P30744: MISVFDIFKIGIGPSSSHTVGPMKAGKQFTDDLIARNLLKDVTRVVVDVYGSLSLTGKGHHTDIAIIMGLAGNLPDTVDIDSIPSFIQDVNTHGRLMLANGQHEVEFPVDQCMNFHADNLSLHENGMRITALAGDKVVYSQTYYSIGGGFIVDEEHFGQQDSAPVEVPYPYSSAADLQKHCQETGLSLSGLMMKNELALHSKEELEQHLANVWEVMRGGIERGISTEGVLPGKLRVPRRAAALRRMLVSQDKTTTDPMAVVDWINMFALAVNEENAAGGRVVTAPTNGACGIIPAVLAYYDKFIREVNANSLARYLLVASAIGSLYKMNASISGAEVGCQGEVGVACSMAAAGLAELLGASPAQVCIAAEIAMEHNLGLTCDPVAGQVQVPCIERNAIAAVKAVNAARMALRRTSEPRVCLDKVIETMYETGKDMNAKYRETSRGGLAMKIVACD
UniProt P23886: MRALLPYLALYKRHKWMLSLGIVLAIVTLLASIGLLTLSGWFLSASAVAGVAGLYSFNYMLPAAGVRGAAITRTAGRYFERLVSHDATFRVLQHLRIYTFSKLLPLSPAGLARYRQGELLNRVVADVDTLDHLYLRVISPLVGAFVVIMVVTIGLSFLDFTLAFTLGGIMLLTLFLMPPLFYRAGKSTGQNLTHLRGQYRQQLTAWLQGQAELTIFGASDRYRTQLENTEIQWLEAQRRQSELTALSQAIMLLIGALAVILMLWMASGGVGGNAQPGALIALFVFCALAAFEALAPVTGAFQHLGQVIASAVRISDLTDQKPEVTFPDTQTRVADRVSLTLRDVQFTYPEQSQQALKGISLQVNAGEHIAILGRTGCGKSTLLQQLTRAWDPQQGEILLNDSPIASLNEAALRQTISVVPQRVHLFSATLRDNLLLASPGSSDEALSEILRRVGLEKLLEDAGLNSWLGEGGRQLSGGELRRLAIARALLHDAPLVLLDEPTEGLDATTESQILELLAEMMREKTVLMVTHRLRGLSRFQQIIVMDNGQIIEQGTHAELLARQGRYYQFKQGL
UniProt P23869: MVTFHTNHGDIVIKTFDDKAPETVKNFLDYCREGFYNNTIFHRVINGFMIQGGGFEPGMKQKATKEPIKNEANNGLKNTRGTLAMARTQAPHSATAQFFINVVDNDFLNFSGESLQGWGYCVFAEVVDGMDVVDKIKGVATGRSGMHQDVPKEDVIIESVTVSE
UniProt P28632: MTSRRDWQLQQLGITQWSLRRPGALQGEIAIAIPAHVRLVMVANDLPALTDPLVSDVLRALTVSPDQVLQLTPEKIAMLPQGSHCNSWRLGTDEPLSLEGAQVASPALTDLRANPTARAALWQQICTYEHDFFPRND

Compound: Nc1ncnc2c1ncn2[C@@H]1O[C@H](COP(=O)(O)OP(=O)(O)OP(=O)(O)O)[C@@H](O)[C@H]1O [adenosine 5'-triphosphate]
Experiment: log2 fold change of tryptic peptide abundance, ligand vs vehicle (limited proteolysis) (log2 ratio); higher = more trypsin-susceptible (destabilized)
Details: ligand concentration: 5 mM; sample: E. coli desalted lysate; replicate design: treated before aliquoting
Description: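 HT-PELSA: desalted E. coli K-12 BW25113 lysate (with 12 mM MgCl2) incubated with 5 mM ATP (pH 7) or water for 30 min at 25 C, then a 4 min trypsin pulse at 22 C. Peptides were quantified by DIA-MS (4 replicates). Value is the peptide log2 fold change (treated/control); negative = stabilized. Scale: negative = ligand-stabilized region.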
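Also: lysate desalted by size exclusion to strip endogenous ATP, peptide intensities built from DIA-NN precursor signals, and peptides missing any value discarded before comparison.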

Target	log2 fold change
UniProt P30863 (peptide sequence: AQNLQLDAEDKK, peptide start residue: 234)	0.308
UniProt P21362 (peptide sequence: ETLEEEK, peptide start residue: 138)	0.45
UniProt P28629 (peptide sequence: EAQDLLEK, peptide start residue: 332)	0.645
UniProt P24205 (peptide sequence: RKDLYPIK, peptide start residue: 316)	-0.341
UniProt P16682 (peptide sequence: GLNEQDKLAK, peptide start residue: 300)	0.114
UniProt P24178 (peptide sequence: WLEANNIDYR, peptide start residue: 19)	0.126
UniProt P27862 (peptide sequence: AYGGGVNQALR, peptide start residue: 116)	0.403
UniProt P27896 (peptide sequence: HILQIVR, peptide start residue: 269)	-0.573
UniProt P25550 (peptide sequence: LADETTAR, peptide start residue: 205)	-0.541
UniProt P23917 (peptide sequence: LYQTVGQLIK, peptide start residue: 260)	-0.326
UniProt P16689 (peptide sequence: KHGMNVLMGAPNIVR, peptide start residue: 262)	-0.0648
UniProt P27303 (peptide sequence: STPVAVSTAR, peptide start residue: 361)	0.16
UniProt P30748 (peptide sequence: QHMAAQSDRWALALEDGK, peptide start residue: 33)	-0.356
UniProt P16926 (peptide sequence: NSELLMLGQYK, peptide start residue: 88)	1.46
UniProt P28911 (peptide sequence: ILNFGHGK, peptide start residue: 120)	-0.0776
UniProt P28306 (peptide sequence: GGHTFNTNLASHNK, peptide start residue: 312)	-0.681
UniProt P28722 (peptide sequence: VEAGQVQQVR, peptide start residue: 77)	-0.546
UniProt P22186 (peptide sequence: GATLVNLDSK, peptide start residue: 4)	-0.0768
UniProt P19642 (peptide sequence: AVAGAPGK, peptide start residue: 440)	-0.352
UniProt P23842 (peptide sequence: ALEQAPEQEAGK, peptide start residue: 339)	-0.495

Target	log2 fold change
UniProt P25738 (peptide sequence: AAADEWDER, peptide start residue: 116)	0.109
UniProt P23256 (peptide sequence: GVAGLINAIR, peptide start residue: 378)	-0.462
UniProt P17411 (peptide sequence: QLFELYKNPELK, peptide start residue: 292)	0.404
UniProt P23721 (peptide sequence: YGVIYAGAQK, peptide start residue: 189)	-0.412
UniProt P24242 (peptide sequence: QLLLADGKHSAEEER, peptide start residue: 93)	-0.389
UniProt P24169 (peptide sequence: QQAGFSQTSQIHK, peptide start residue: 348)	-0.671
UniProt P24218 (peptide sequence: YAHLAPNHLTEHAR, peptide start residue: 349)	-0.878
UniProt P21369 (peptide sequence: LIDWCQSR, peptide start residue: 36)	-0.673
UniProt P21363 (peptide sequence: ARIEQHLSETK, peptide start residue: 40)	1.56
UniProt P18390 (peptide sequence: LASVTDAENIK, peptide start residue: 87)	-0.307
UniProt P25798 (peptide sequence: FSEASGAIEVPADKVHELR, peptide start residue: 76)	0.596
UniProt P30843 (peptide sequence: KYTLPVLILTAR, peptide start residue: 70)	0.133
UniProt P16703 (peptide sequence: AYGAELILVTK, peptide start residue: 105)	0.665
UniProt P25665 (peptide sequence: DGSVDIDTLFR, peptide start residue: 88)	0.454
UniProt P30744 (peptide sequence: QFTDDLIAR, peptide start residue: 28)	0.276
UniProt P24228 (peptide sequence: FTLTGCLPQR, peptide start residue: 229)	-0.259
UniProt P28304 (peptide sequence: LIGTVGTAQK, peptide start residue: 168)	-0.3
UniProt P23886 (peptide sequence: YYQFKQGL, peptide start residue: 566)	0.648
UniProt P23869 (peptide sequence: EGFYNNTIFHR, peptide start residue: 33)	0.241
UniProt P28632 (peptide sequence: RPGALQGEIAIAIPAHVR, peptide start residue: 21)	0.0821

Looked up above:
UniProt P30843 (peptide sequence: KYTLPVLILTAR, peptide start residue: 70) | log2 fold change: 0.133
UniProt P23721 (peptide sequence: YGVIYAGAQK, peptide start residue: 189) | log2 fold change: -0.412
